Screen size: about 31,000 sequences; about 1,400 (4.5%) were called active.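 The calls were made as follows: active = median seed-adjusted z-score above 1 or below -1; inactive = the rest.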 This is one part of the list.

The assay can be described thus: Novel Modifiers of Survival Motor Neuron (SMN) Protein: Gene Identification via Genome-wide siRNA Screen.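 Also: luminescence tracks full-length SMN protein made from the SMN2 reporter.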 The note with it: HEK293T SMN2-luciferase reporter, siRNA knockdown, 72 h; actives lie on both sides. Summed up: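 Luciferase signal, proportional to full-length SMN made from an SMN2 cDNA reporter in stable HEK293T cells, was read 72 h after siRNA reverse transfection. Values were expressed as MAD scores after non-targeting-control normalization and log10 conversion; seed analysis flagged off-targets.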
(In general: Reporter assays use an easily measured gene product as a stand-in for the process of interest.)
As to CUAUCAUCGAGAUUGCAGATT against ARHGAP30, the median seed-adjusted z-score is inactive: 0.0946.

Consider CGUUUGUAGAUGACAAUGATT against NFE2L2, for which the median seed-adjusted z-score is inactive: -0.596.

On to GCACUUUACUAGGUCUAGATT against NANOS1, for which the median seed-adjusted z-score is inactive: 0.369.

In the case of CCUGUGGUUUGCUAUCUAATT against SLC24A5, the median seed-adjusted z-score was inactive: -0.166.

As to GAGCUACAUUACUAAGUCATT against ZNF223, the median seed-adjusted z-score was inactive: 0.367.

For GGCUGGAGCGUGAUGUAUATT against CYP26C1, the median seed-adjusted z-score was inactive: -0.276.

Turning to CCCUAAUUCUUCGUCAUAATT against AMIGO2, the median seed-adjusted z-score is inactive: -0.258.

GGCUAGCUGAUAUCAGUUUTT against DDX31: the median seed-adjusted z-score is inactive: 0.0144.

For the sequence GCUUUUCGGAUGCCCGAGATT against LRRN2, the median seed-adjusted z-score was inactive: 0.324.

For GGCUGUACAAGCUCACGUATT against MTTP, the median seed-adjusted z-score is inactive: 0.

On to CCUCACACUUGAUUCAGUUTT against RPP38, for which the median seed-adjusted z-score was inactive: 0.07.

GUUCAGACCUGAUUAGGCATT against ZNF623: the median seed-adjusted z-score was inactive: 0.272.

Turning to GACCUUCCACAGUACAUCATT against MAST3, the median seed-adjusted z-score was inactive: -0.642.

With GCAGAGAACUGGUUCCGAATT against ZNF512B, the median seed-adjusted z-score is inactive: 0.212.

Take CAUAGAAAAUAUGCAGUUUTT against MPZL1: the median seed-adjusted z-score was inactive: 0.376.

On to GAGCUUCGCUUGCAAGAAUTT against AQP11, for which the median seed-adjusted z-score was inactive: -0.0455.

With GGAAGUUCAUGCCUCUGGATT against UBA7, the median seed-adjusted z-score was active: 2.41.

On to GGCUGCAACUGUAUAUCUATT against HAO1, for which the median seed-adjusted z-score is inactive: 0.421.

With AAUUUAUACUGCCAUCUUATT against HSPA1A, the median seed-adjusted z-score is inactive: -0.833.

For GUCCAUAGAUGACAUCGAATT against ZC3H7B, the median seed-adjusted z-score was inactive: -0.093.

As to CUGGUGUUCUUUGAACUGATT against TMED1, the median seed-adjusted z-score was inactive: 0.

For CAGCGUAUUUGAGAAUUUATT against ATRX, the median seed-adjusted z-score is inactive: -0.158.

For UGAAGAAAGCGGAAAAGAATT against CSTF3, the median seed-adjusted z-score is inactive: 0.0879.

On to CGGACAUUCUCAUCAAUGATT against HTR3A, for which the median seed-adjusted z-score was inactive: 0.37.

Regarding GGCUUGCUAGAGAAGUUUUTT against METAP1, the median seed-adjusted z-score is inactive: -0.139.

As for GAGUGGUACAGUUCGAACATT against SYNJ1, the median seed-adjusted z-score is inactive: 0.

On to CUAUUUCUCAAAAUGGAUATT against MPN2, for which the median seed-adjusted z-score is inactive: 0.108.

Consider GCAGCUCCAGUAACCUCAATT against ZNF683, for which the median seed-adjusted z-score is inactive: -0.452.

For the sequence CUUCGUAUGUUUACAAGAATT against GUCY2C, the median seed-adjusted z-score is inactive: -0.0181.

For the sequence GGAUCAAUACUCCAACAAATT against ZNF281, the median seed-adjusted z-score was active: 1.19.

For the sequence GGAUUAAACUACAUCAAGATT against PTPN1, the median seed-adjusted z-score is inactive: 0.05.

In the case of GAGAGAUCAUUGCAAAGCATT against HNRNPM, the median seed-adjusted z-score was inactive: 0.499.

As to CGAAUAGUAUGUCAGAUGATT against HIPK3, the median seed-adjusted z-score is inactive: -0.00424.

As for GAAAAUCAGGGAUGUAUUATT against ZNF140, the median seed-adjusted z-score is inactive: 0.587.

In the case of CUCUGAAGAUUGAUAUUCUTT against IFI16, the median seed-adjusted z-score is inactive: -0.0178.

Take CCUUGAUCAUCGACAUUCUTT against GIT1: the median seed-adjusted z-score is inactive: -0.307.

Consider GGUAAGGUCAAAGCCCUAATT against RNASEL, for which the median seed-adjusted z-score is inactive: 0.

GCUGUAACCUCUUCAUCUATT against BRUNOL6: the median seed-adjusted z-score was inactive: -0.542.

For the sequence CACUUAAAGACAACCCAAATT against STARD4, the median seed-adjusted z-score was inactive: 0.173.

Consider GGGACAAACCACAUUAGUATT against TRIM33, for which the median seed-adjusted z-score is inactive: 0.316.

With CACACACACCAGCAAGAUATT against MAX, the median seed-adjusted z-score is inactive: 0.0949.

Regarding GUACGAUAUAUAACAAUGATT against ANKRD30A, the median seed-adjusted z-score was inactive: 0.259.

On to GGGAGAGAGAUUAAGAAGATT against PHF1, for which the median seed-adjusted z-score is inactive: -0.196.

Turning to UGGACUUCGUGGUUCAGCATT against SULT1A1, the median seed-adjusted z-score was inactive: -0.26.

Regarding GCUCUACUAUGAGAAUGAATT against CRHR2, the median seed-adjusted z-score was inactive: -0.211.

Turning to CUCCAUUGCUUGUAAAGCUTT against USP26, the median seed-adjusted z-score was inactive: -0.0505.

Take CAAUGGAGAUUCAACAGAATT against NME7: the median seed-adjusted z-score is inactive: -0.331.

On to GCCCAGAGACUAUGGAGUATT against PAQR4, for which the median seed-adjusted z-score was inactive: 0.316.

On to GGACCAUCGGGAUCAUCAATT against P2RX3, for which the median seed-adjusted z-score is inactive: -0.44.

Take CCCAAGUCAUUUAAAGUCATT against CYP1B1: the median seed-adjusted z-score was inactive: -0.261.

CCUUCGAGCUGCUAUUAAUTT against TLR10: the median seed-adjusted z-score was inactive: -0.363.

In the case of CCAGUUCAGUUCGAAGACATT against ZNF441, the median seed-adjusted z-score is inactive: 0.578.

On to GGACUGAUGCAGUGGAUUATT against SLC28A3, for which the median seed-adjusted z-score was inactive: -0.107.

Take ACAAAGUGUUUAAGCGGUUTT against ZNF714: the median seed-adjusted z-score was inactive: 0.

Turning to AGAGCAUCAUCAACCAGGUTT against STAR, the median seed-adjusted z-score is inactive: 0.478.

Consider CUACGACUUUUCCAAUAUATT against SLC6A4, for which the median seed-adjusted z-score was active: 1.43.

Consider GGAUGUGGUUGAGUACCUATT against ZFYVE26, for which the median seed-adjusted z-score is inactive: 0.0495.

For GGAAGACGAUCUGAACCGATT against EPS15L1, the median seed-adjusted z-score is inactive: -0.0511.

Take GGUCUAAGGAUAUAGGAUATT against CRP: the median seed-adjusted z-score is inactive: -0.212.

Consider AGGACGAGCUGGAUACGGATT against NXNL1, for which the median seed-adjusted z-score was inactive: 0.334.

In the case of GGAGAAUACCUAUCGUGAUTT against PTPN9, the median seed-adjusted z-score is inactive: 0.148.

CCAUAAGGUGUAUACGACATT against GGCX: the median seed-adjusted z-score is inactive: -0.362.

For the sequence GGCAGGCUCUGAACUAUGATT against APCS, the median seed-adjusted z-score is inactive: 0.0494.

Consider GCAAGUCCACGUUCCUCAATT against GNA12, for which the median seed-adjusted z-score is inactive: 0.598.

Consider CAAGUAUAUUGAACGAGGATT against SLITRK4, for which the median seed-adjusted z-score was inactive: -0.015.

As to CUAUAACAUUGGGAAUUAUTT against LEPRE1, the median seed-adjusted z-score is inactive: 0.121.

Consider GGAAGUGAAUUAUCACGUUTT against ALPK1, for which the median seed-adjusted z-score was inactive: -0.0149.

On to CCAUGAACAUUGUGAGCAATT against GAPDHS, for which the median seed-adjusted z-score was inactive: -0.674.

The values are drawn from PubChem BioAssay AID1347426 (Functional Genomics Laboratory (NCATS/FGL), 2020).
